Results are given in words; binding and its absence hold for the method and conditions named.
Target: Recombinant human DNase1L2, short isoform (DNase1L2-S) (human) (UniProt Q92874)
Experiment: SEC; Superdex 200 10/300 in PBS with 1 mM CaCl2; single peak; molecular weight judged by SDS-PAGE against the value calculated from the sequence; both purified

binding: no binding
B1: Recombinant human DNase1L2, short isoform (DNase1L2-S) (enzyme, UniProt Q92874-2 21-278)
chain: ALRIGAFNIQSFGDSKVSDPACGSIIAKILAGYDLALVQEVRDPDLSAVSALMEQINSVSEHEYSFVSSQPLGRDQYKEMYLFVYRKDAVSVVDTYLYPDPEDVFSREPFVVKFSAPGTAQNLVLIPLHAAPHQAVAEIDALYDVYLDVIDKWGTDDMLFLGDFNADCSYVRAQDWAAIRLRSSEVFKWLIPDSADTTVGNSDCAYDRIVACGARLRRSLKPQSATVHDFQEEFGLDQTQALAISDHFPVEVTLKFHR

From PMC8002113
